Record: PubChem BioAssay AID504774 (Drosophila RNAi Screening Center, 2011)
The screen tested about 23,000 reagents; this is a random part of those with a known target gene and a result. 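Values are quantile-normalised luminescence on an arbitrary scale; higher means more cells surviving MMS.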 The numbers tell different reagents against one gene apart. Further read-outs or replicates are left out here.

Aim: 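Fly genes whose loss alters survival after alkylation damage to DNA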 (primary screen)
System: Drosophila Kc167 cells
Knock-down reagent: long dsRNA against Drosophila genes, about 0.25 µg dsRNA per well
Timing: about 6 days: 3 days knock-down, then 3 days with or without MMS
Conditions: methyl methanesulphonate 0.004% (w/v) for 3 days after knock-down
Read-out: 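ATP-dependent luminescence as a measure of live cells in MMS-exposed wells, quantile normalised within each plate, with replicate values also given as a mean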
Scale: mean viability with MMS: higher = more surviving cells after MMS

gene knocked down,dsRNA no.,mean viability with MMS
Coq2 (Coenzyme Q biosynthesis protein 2),1,3.61e6
Coq2 (Coenzyme Q biosynthesis protein 2),2,3.78e6
Targ (Tarag),1,3.64e6
CSN8 (COP9 signalosome subunit 8),1,3.53e6
CG10081,1,3.49e6
CG7236,1,3.50e6
CG6304,1,3.12e6
CG7227,1,3.53e6
dom (domino),1,3.10e6
dom (domino),2,3.31e6
CG15056,1,3.48e6

A stretch taken from the entries so far, as a working copy:
gene knocked down,dsRNA no.,mean viability with MMS
Targ (Tarag),1,3.64e6
CSN8 (COP9 signalosome subunit 8),1,3.53e6
CG10081,1,3.49e6

Continued:
gene knocked down,dsRNA no.,mean viability with MMS
Faf2 (Fas-associated factor 2),1,3.56e6
Smr (Smrter),1,2.76e6
Smr (Smrter),2,2.77e6
Smr (Smrter),3,3.38e6
Stim (Stromal interaction molecule),1,3.57e6
CG7049,1,3.56e6
CG17272,1,3.52e6
Iris,1,3.77e6
ETH (Ecdysis triggering hormone),1,3.44e6
Cyt-c1 (Cytochrome c1),1,3.48e6
Rab9,1,3.62e6
CG32201,1,3.58e6
Not1,1,3.44e6
Not1,2,3.38e6
CG8564,1,3.59e6
CG2772,1,3.54e6
cbc (crowded by cid),1,3.35e6
